{
  "source": "patent US7326710B2",
  "about": "“Aralkyl formyl-alkyl piperazine derivatives and their uses as a cerebral nerve protective agent” (Shanghai Institute of Pharmaceutical Industry, priority 2002, dated 2008)",
  "format_in_all_cases": "in vivo",
  "key": {"[1]": {"system": "focal cerebral ischemia in rats", "assay": "Focal brain injury, occlusion of MCA induced by photochemical reaction", "conditions": "2 mg/kg", "experimental": "a. Focal brain injury caused by photochemical induction of occlusion of the artery:\nThe percentage of infarction was lowered by 52% at 24 hours after operation."}, "[2]": {"system": "focal cerebral ischemia in rats", "assay": "Focal cerebral ischemia in rats by occlusion of middle cerebral artery (MCA)", "conditions": "20 mg/kg p.o.", "experimental": "The focal ischemia rat model by occlusion of middle cerebral artery (MCA) was used to determine the protective effects of the compounds on focal cerebral ischemia. The infarct size after focal cerebral ischemia and the weight percentage of cerebral hemisphere were calculated to evaluate the compounds' effects on focal cerebral ischemia."}, "[3]": {"system": "focal cerebral ischemia in rats", "assay": "Focal cerebral infarction, electrical coagulation to occlude MCA", "experimental": "a. The Focal Cerebral-Infarction of Using Electrical Coagulation to Occlude MCA:\nFor the 5 mg/kg group, the percentage of the rat's infarct size was decreased, but the difference is not significant (p=0.098). The effect is not significant for the Nimodipine mg/kg."}},
  "data": [
    {"smiles": "O=c1[nH]c2cc(Cl)c(Cl)c([N+](=O)[O-])c2[nH]c1=O", "note": "[ACEA-1021, reference compound]", "values": [
      {"measurement": "Weight of right hemisphere", "setting": "[1]", "value": "0.70 ± 0.01", "unit": "g"}
    ]},
    {"smiles": "O=C(CN1CCN(CC=Cc2ccccc2)CC1)NCc1ccccc1", "note": "[IV-21, N1-[2-(benzylamino)-2-oxo-ethyl]-N^4-cinnamyl piperazine]", "values": [
      {"measurement": "Right hemisphere-Weight", "setting": "[2]", "value": "0.76 ± 0.02", "unit": "g"}
    ]},
    {"smiles": "COc1ccc2cc(C(=O)C(C)N3CCN(CC(=O)c4ccccc4)CC3)ccc2c1Cl", "note": "(stereo not drawn) [IV-20, N^1-phenacyl-N^4-[1-(5-chloro-6-methoxy-2-naphthoyl)ethyl]piperazine]", "values": [
      {"measurement": "Right hemisphere-Weight", "setting": "[2]", "value": "0.74 ± 0.01", "unit": "g"}
    ]},
    {"smiles": "O=C(CN1CCN(S(=O)(=O)Cc2ccc(F)cc2F)CC1)c1ccccc1", "note": "[IV-22, N^1-phenacyl-N^4-(2,4-difluorobenzylsulfonyl) piperazine]", "values": [
      {"measurement": "Right hemisphere-Weight", "setting": "[2]", "value": "0.73 ± 0.01", "unit": "g"}
    ]},
    {"smiles": "O=C(CN1CCN(CC(=O)c2ccccc2)CC1)NCc1ccccc1", "note": "[IV-23, N^1-phenacyl-N^4-[2-(benzylamino)-2-oxo-ethyl] piperazine]", "values": [
      {"measurement": "The weight of the right cerebral hemisphere", "setting": "[3]; High-dose (20 mg/kg)", "value": "0.73 ± 0.02", "unit": "g"},
      {"measurement": "The weight of the right cerebral hemisphere", "setting": "[3]; Low-dose (5 mg/kg)", "value": "0.73 ± 0.01", "unit": "g"},
      {"measurement": "The weight of the right cerebral hemisphere", "setting": "[3]; middle-dose (10 mg/kg)", "value": "0.73 ± 0.01", "unit": "g"},
      {"measurement": "Right hemisphere-Weight", "setting": "[2]", "value": "0.737 ± 0.029", "unit": "g"},
      {"measurement": "Weight of right hemisphere", "setting": "[1]", "value": "0.68 ± 0.01", "unit": "g"}
    ]}
  ]
}
